{
  "source": "paper PMC7819943",
  "about": "“Rice protein-binding microarrays: a tool to detect cis-acting elements near promoter regions in rice”",
  "note": "The other results are listed elsewhere or left out.",
  "data": [
    {"target": "T1, OsSMF1 (Oryza sativa, UniProt Q6ZLB0 1-436)", "T1 sequence": "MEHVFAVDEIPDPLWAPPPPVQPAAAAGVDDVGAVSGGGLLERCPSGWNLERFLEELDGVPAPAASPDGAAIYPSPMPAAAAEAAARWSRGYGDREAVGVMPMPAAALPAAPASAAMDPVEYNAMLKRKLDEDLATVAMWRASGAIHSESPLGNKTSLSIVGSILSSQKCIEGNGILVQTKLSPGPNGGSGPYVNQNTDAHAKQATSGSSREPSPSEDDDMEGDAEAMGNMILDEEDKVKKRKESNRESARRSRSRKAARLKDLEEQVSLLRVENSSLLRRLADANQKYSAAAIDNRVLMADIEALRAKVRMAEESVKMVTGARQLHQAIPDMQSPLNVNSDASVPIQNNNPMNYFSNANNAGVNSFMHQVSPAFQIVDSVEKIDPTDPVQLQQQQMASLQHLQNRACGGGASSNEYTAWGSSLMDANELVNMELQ", "experiment": "protein-binding microarray (RPBM); PBS, 2% BSA, 51.3 ng/ul salmon testes DNA, 50 uM zinc acetate, 200 nM TF, 25 C, 1 h; high values mean tight binding", "details": "protein: recombinant; tags: N-terminal polyhistidine and DsRed monomer fusion (pET32a); chain copies: 2; label: CyDye5-dUTP incorporated in the synthesized complementary strand; 3' TTTTT single-stranded linker to array surface; dsDNA, one strand shown", "procedure,_shortened": "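In PBS with 2% BSA, salmon testes DNA and 50 µM zinc acetate, 200 nM protein was incubated on a custom Agilent array at 25 °C for 1 h and then washed off. The array had been made double-stranded by primer extension with Cy5-dUTP and blocked with 2% BSA. The proteins were transcription factors fused N-terminally to polyhistidine and DsRed, expressed in E. coli BL21-CodonPlus and purified on Ni–NTA. The binding signal is per-feature fluorescence intensity (arbitrary units) from an Axon 4000B scanner.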", "values": [
      {"sequence": "TAATTTCTTGATGATGTGGAGTTTATGGAAACCATATTTACGGAGTCACCTAGTGCAG", "binding signal": "7250 fluorescence intensity (a.u.)"},
      {"sequence": "GTGTTTGGGGTTCTTGGAATTGATCATGGCAGGTGGCGAACGGAGTCACCTAGTGCAG", "binding signal": "13500 fluorescence intensity (a.u.)"},
      {"sequence": "TCGGTGACAAAGGTGGTGGGATCTTGCTTCTCTTCCTGCACGGAGTCACCTAGTGCAG", "binding signal": "3160 fluorescence intensity (a.u.)"},
      {"sequence": "AGGGTGGGTTACGTCGACAGACACTGGATAAGATCAATCCCGGAGTCACCTAGTGCAG", "binding signal": "4130 fluorescence intensity (a.u.)"},
      {"sequence": "AAAATTAAATTTAACCATGTCATTTTATTTCTCACACTTGCGGAGTCACCTAGTGCAG", "binding signal": "3540 fluorescence intensity (a.u.)"},
      {"sequence": "GCGGCAGGTTTCGGCGGCGGGGCGGGCGGCAGGTGTCGGCCGGAGTCACCTAGTGCAG", "binding signal": "3890 fluorescence intensity (a.u.)"},
      {"sequence": "CCCTTTGACCTACCGCGGCGCCGCCCACCTGCGCCGGCATCGGAGTCACCTAGTGCAG", "binding signal": "3490 fluorescence intensity (a.u.)"},
      {"sequence": "GTGTGACCCTGCGTGTGCAGCGTGAGCTGGGGTGGAGCTGCGGAGTCACCTAGTGCAG", "binding signal": "3570 fluorescence intensity (a.u.)"},
      {"sequence": "TGCATTGTTTTGGTTGTAGACGTGGTTTGATAATAGTTGGCGGAGTCACCTAGTGCAG", "binding signal": "10300 fluorescence intensity (a.u.)"},
      {"sequence": "GAAATTTACTAACATGGGATCAGATATCGTGTCATTATTACGGAGTCACCTAGTGCAG", "binding signal": "4190 fluorescence intensity (a.u.)"},
      {"sequence": "ATTGCTTTATATGGTTATTTAAGTTTATTTTGCATCCCTACGGAGTCACCTAGTGCAG", "binding signal": "22600 fluorescence intensity (a.u.)"},
      {"sequence": "CCACTGCCCTGTCTTTGCACACATCAGTCTTCCCGGAGTTCGGAGTCACCTAGTGCAG", "binding signal": "4400 fluorescence intensity (a.u.)"},
      {"sequence": "GGTGAGGAGCACGCGCCACGTGTCTGTACCTGGGCCCAGACGGAGTCACCTAGTGCAG", "binding signal": "10700 fluorescence intensity (a.u.)"},
      {"sequence": "GAGGAGGCAAATGGGGAGGGGAAGCGATCGGAGGAGGCGGCGGAGTCACCTAGTGCAG", "binding signal": "3320 fluorescence intensity (a.u.)"},
      {"sequence": "CGGGCTGCTCGGAGGGCGGGATCGGGCACGCGATGGCGCGCGGAGTCACCTAGTGCAG", "binding signal": "3190 fluorescence intensity (a.u.)"},
      {"sequence": "AATTATTGGCACGCTTAGCATCAATGACAACACAATTGTGCGGAGTCACCTAGTGCAG", "binding signal": "4440 fluorescence intensity (a.u.)"},
      {"sequence": "TATTTAAATTTTATATCCTAATTTTAAAATTGATTTTGATCGGAGTCACCTAGTGCAG", "binding signal": "19700 fluorescence intensity (a.u.)"},
      {"sequence": "GAGCTAGTCCATAAATTTGTATAGGAATCTGAGGAAAGGGCGGAGTCACCTAGTGCAG", "binding signal": "7190 fluorescence intensity (a.u.)"},
      {"sequence": "CATGCCCTCAGATCCCATTGCTGAGTAGGACGCAGATTTTCGGAGTCACCTAGTGCAG", "binding signal": "3520 fluorescence intensity (a.u.)"},
      {"sequence": "CCTCCACACCTACCAACCCTACTGTCACTAATAAATCATTCGGAGTCACCTAGTGCAG", "binding signal": "3520 fluorescence intensity (a.u.)"},
      {"sequence": "TGGCGCCGCCTCTTCTTGGTTCTTCAGCCACCCTCAACCCCGGAGTCACCTAGTGCAG", "binding signal": "3550 fluorescence intensity (a.u.)"},
      {"sequence": "ATCTCGCCTCTGTGTCGACCGATCGGCCGTTGATATGATACGGAGTCACCTAGTGCAG", "binding signal": "4440 fluorescence intensity (a.u.)"},
      {"sequence": "CGCGGCAGTGCTCGAGCTTGTGCTCACGTCCGCGCTTGCCCGGAGTCACCTAGTGCAG", "binding signal": "3300 fluorescence intensity (a.u.)"},
      {"sequence": "CACGCAAAACACACGTAATCAATCTAGGGTTTGCCTCCTCCGGAGTCACCTAGTGCAG", "binding signal": "5120 fluorescence intensity (a.u.)"},
      {"sequence": "GGCGTATGACGAGTGGGTCCACGCATCATCTATCTTCGTGCGGAGTCACCTAGTGCAG", "binding signal": "7330 fluorescence intensity (a.u.)"},
      {"sequence": "TATCCAGCACGAAAGACCAAGTAAATGGAACCTTGCATGTCGGAGTCACCTAGTGCAG", "binding signal": "3390 fluorescence intensity (a.u.)"},
      {"sequence": "CCAGGTTGAGTGGGCTCAATGATTGCCCTGTAACGGCTAGCGGAGTCACCTAGTGCAG", "binding signal": "10400 fluorescence intensity (a.u.)"},
      {"sequence": "ATAATGCTGACTGAACTGCCATGTGTACGCCACGTAGACCCGGAGTCACCTAGTGCAG", "binding signal": "27600 fluorescence intensity (a.u.)"},
      {"sequence": "CTTTCTTCTTCCTCGCCCACGCGCGTGGCGCCGCCGCCGCCGGAGTCACCTAGTGCAG", "binding signal": "3640 fluorescence intensity (a.u.)"},
      {"sequence": "TAAAGATCTATATATCCAATTTACATGACACATGTTTCGCCGGAGTCACCTAGTGCAG", "binding signal": "17100 fluorescence intensity (a.u.)"},
      {"sequence": "TCCGTCAATGGCGGGAATACATGACGTGTTCCATGTGTCGCGGAGTCACCTAGTGCAG", "binding signal": "18800 fluorescence intensity (a.u.)"},
      {"sequence": "AAGCTATAATCTATCATTGTTCGTAACATGACAAGGATTTCGGAGTCACCTAGTGCAG", "binding signal": "4350 fluorescence intensity (a.u.)"},
      {"sequence": "AGGCCACGTGCTCCTCCCCACATACGCCTCGTCGAGTTGTCGGAGTCACCTAGTGCAG", "binding signal": "4600 fluorescence intensity (a.u.)"},
      {"sequence": "GCAGCAGCAGAAGAAGGACAGGAACACGTCGGAGACAATGCGGAGTCACCTAGTGCAG", "binding signal": "4080 fluorescence intensity (a.u.)"},
      {"sequence": "GCCAACGCCCTCGCTGGCGGCAGCGCCGGCGCCAACGGCCCGGAGTCACCTAGTGCAG", "binding signal": "21500 fluorescence intensity (a.u.)"},
      {"sequence": "GCATGGTGGCGGCGGGAAGGAGGAGTGGGGCGGCGGGTGCCGGAGTCACCTAGTGCAG", "binding signal": "3770 fluorescence intensity (a.u.)"},
      {"sequence": "GCCATCTGCTGCCGATGATTAGCGATGGATTATTATATCGCGGAGTCACCTAGTGCAG", "binding signal": "3140 fluorescence intensity (a.u.)"},
      {"sequence": "GGCAGCTTGGTGCGGGAGAGAGGCGGCGGCGAAGGGGAGACGGAGTCACCTAGTGCAG", "binding signal": "41900 fluorescence intensity (a.u.)"},
      {"sequence": "TCAGCCCAGCCACATCACCGCCCACTCCACCACCCCACCCCGGAGTCACCTAGTGCAG", "binding signal": "9890 fluorescence intensity (a.u.)"},
      {"sequence": "CAATCACACCACACGTTTACAACCAGAGGCTGCTACTGAACGGAGTCACCTAGTGCAG", "binding signal": "3600 fluorescence intensity (a.u.)"},
      {"sequence": "TCAACCGGTCGGTATCTAAACCCTCTCCCTTTCATCTAGACGGAGTCACCTAGTGCAG", "binding signal": "17500 fluorescence intensity (a.u.)"},
      {"sequence": "CCAGCACAGTAGTTAGCATATGACAAGTGACAACATGCAACGGAGTCACCTAGTGCAG", "binding signal": "3640 fluorescence intensity (a.u.)"}
    ]}
  ]
}
